In all, about 390,000 compounds went through this assay and about 820 (0.21%) were called active. The shares of active, inactive and inconclusive entries below differ from those in the screen. Calls follow the shape of the dose curve; as a rule, active = well fitted inhibition curve with a large enough effect; inconclusive = small, poorly fitted or top-dose-only effect, or another doubt; inactive = no such curve, though single readings can be large or run the other way. Potencies beside an inconclusive call are fits to weak or partial responses and may not hold up.
Target: Histone acetyltransferase KAT2A (Homo sapiens) (UniProt Q92830)
Assay: qHTS Assay for Inhibitors of GCN5L2
Settings: GCN5L2 HAT assay, ThioGlo1 CoA-SH fluorescence; activity change, negative = inhibition: at 58.9 µM (top of the series) unless noted
Method in brief: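 Free CoA generated was detected with ThioGlo1 (50uM) fluorescence at Ex340nm/Em540nm, read immediately and after 20 min at room temperature. Enzyme, 20 nM in HEPES pH 7.5 buffer, saw compounds 15 min before adding 75uM H3(1-25) peptide and 70uM acetyl-CoA.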
% is scaled to controls: 0 for no effect and ±100 for the full control effect; potency is read from the fitted curve at half-maximal effect.

Amino acid sequences for entries named in this document (tags omitted).
UniProt Q92830, whole entry, looked up: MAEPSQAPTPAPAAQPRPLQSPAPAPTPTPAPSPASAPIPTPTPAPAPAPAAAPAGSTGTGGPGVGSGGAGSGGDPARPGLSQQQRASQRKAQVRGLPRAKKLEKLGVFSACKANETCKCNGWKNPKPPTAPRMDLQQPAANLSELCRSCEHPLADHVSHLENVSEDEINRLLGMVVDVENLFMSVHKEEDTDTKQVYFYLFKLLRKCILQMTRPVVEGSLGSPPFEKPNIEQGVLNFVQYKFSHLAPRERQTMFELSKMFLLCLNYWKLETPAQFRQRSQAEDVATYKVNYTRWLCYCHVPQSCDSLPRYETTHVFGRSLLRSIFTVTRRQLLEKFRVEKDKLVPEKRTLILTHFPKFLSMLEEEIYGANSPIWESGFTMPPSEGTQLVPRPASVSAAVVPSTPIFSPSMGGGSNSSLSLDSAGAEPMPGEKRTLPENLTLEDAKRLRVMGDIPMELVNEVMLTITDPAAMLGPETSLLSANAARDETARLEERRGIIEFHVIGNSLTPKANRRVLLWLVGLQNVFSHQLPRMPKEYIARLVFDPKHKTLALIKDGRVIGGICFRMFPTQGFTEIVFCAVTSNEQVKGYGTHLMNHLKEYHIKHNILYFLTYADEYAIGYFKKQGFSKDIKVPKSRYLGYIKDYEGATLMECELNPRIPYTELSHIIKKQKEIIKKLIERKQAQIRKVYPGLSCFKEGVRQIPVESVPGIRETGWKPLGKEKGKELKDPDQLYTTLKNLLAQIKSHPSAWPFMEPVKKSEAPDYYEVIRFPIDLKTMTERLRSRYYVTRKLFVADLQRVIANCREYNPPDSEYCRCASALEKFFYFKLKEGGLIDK

| SMILES | activity change, negative = inhibition | Potency |
| --- | --- | --- |
| CCN1/C(=C2\C(=O)N(C)C(=S)N2C)C=Cc2ccccc21 | inactive: -5.62% | – |
| COc1ccccc1CNC(=O)COC(=O)c1ccc(C)c(S(=O)(=O)N2CCOCC2)c1 | – | inconclusive: 22.4 µM [inhibitor, single point] |
| Cc1ccc(S(=O)(=O)N2CCCc3ccccc32)cc1C | inactive: -2.04% | – |
| CCc1ccc(C(=O)CSc2ncn[nH]2)cc1 | – | inconclusive: 39.8 µM [inhibitor, single point] |
| O=C(Nc1ccccc1N1CCOCC1)c1cnccn1 | – | inconclusive: 22.4 µM [inhibitor, partial curve] |
| O=C1CS(=O)(=O)N(Cc2ccc(F)cc2)c2ccccc21 | inactive: -5.6% | – |
| O=C(C1CC1)N1CCN=C1SCc1ccccc1 | – | inconclusive: 39.8 µM [inhibitor, single point] |
| COCCNC(=O)c1c(N)n(CCCn2ccnc2)c2nc3ccccc3nc12 | – | inconclusive: 39.8 µM [inhibitor, single point] |
| COc1cccc(NC(=O)C2CCN(S(=O)(=O)c3ccc4c(c3)NC(=O)CO4)CC2)c1 | – | inconclusive: 1.26 µM [inhibitor, partial curve] |
| Cc1c(Cl)c([N+](=O)[O-])nn1CCCC(=O)Nc1sc2c(c1C#N)CCC2 | inactive: -1.3% | – |
| N#Cc1cc2c(nc1SCC(=O)N1CCCCC1)CCCC2 | – | inconclusive: 25.1 µM [inhibitor, partial curve, poor fit] |
| CC(C)(C)C(=O)Nc1sc2c(c1C#N)CCN(Cc1ccccc1)C2 | – | inconclusive: 0.141 µM [inhibitor, full curve, poor fit] |
| O=C(/C=C/c1cccc(Cl)c1)NCCCN1CCOCC1 | – | inconclusive: 31.6 µM [inhibitor, single point] |
| CN(C)/C=N/c1nc2nccc(-c3cccnc3)n2n1 | – | inconclusive: 11.2 µM [inhibitor, partial curve] |
| Cc1nc(N2CCCC2)c2c(C(=O)N3CCN(c4cccc(Cl)c4)CC3)c(C)oc2n1 | inactive: -14.3% | – |
| Cc1cccc(OCC(=O)N(Cc2ccc(C)o2)C2CCS(=O)(=O)C2)c1 (stereo not given) | – | inconclusive: 3.98 µM [inhibitor, single point] |
| Cc1nc2c(C#N)c(C)[nH]n2c(=O)c1Cc1ccccc1 | – | inconclusive: 7.08 µM [inhibitor, single point] |
| Cc1c(Cc2ccccc2)c(=O)oc2cc(OCC(=O)NC(Cc3ccc(Cl)cc3)C(=O)O)ccc12 (stereo not given) | – | inconclusive: 31.6 µM [inhibitor, partial curve] |
| CCOc1c(Cl)cc(C(=O)Nc2ccccc2C(=O)O)cc1Cl | – | inconclusive: 0.891 µM [inhibitor, single point] |
| Brc1cccc(-c2cnc3n2CCCCC3)c1 | inconclusive: -65.7% [inhibitor] | – |
| O=C1C(Cl)=C(N2CCCCC2)C(=O)N1c1ccccc1 | inactive: -2.02% | – |
| COc1ccc(S(=O)(=O)N(CCc2ccccc2)CC(=O)O)cc1C | inconclusive: -91.1% [inhibitor] [at 0.501 µM] | – |
| O=C(CSCc1ccc(F)cc1)N1CCOCC1 | inconclusive: -88.7% [inhibitor] [at 0.501 µM] | – |
| Cc1[nH]nc2c1C(c1cc(Br)cs1)C(C#N)=C(N)O2 (stereo not given) | inactive: -8.53% | – |

Pulled one by one from the list above (2):

| SMILES | activity change, negative = inhibition | Potency |
| --- | --- | --- |
| CCOc1c(Cl)cc(C(=O)Nc2ccccc2C(=O)O)cc1Cl | – | inconclusive: 0.891 µM [inhibitor, single point] |
| Cc1cccc(OCC(=O)N(Cc2ccc(C)o2)C2CCS(=O)(=O)C2)c1 (stereo not given) | – | inconclusive: 3.98 µM [inhibitor, single point] |

Of the compounds above, these have a thiophene ring, fused or not.

| SMILES | activity change, negative = inhibition | Potency |
| --- | --- | --- |
| Cc1c(Cl)c([N+](=O)[O-])nn1CCCC(=O)Nc1sc2c(c1C#N)CCC2 | inactive: -1.3% | – |
| CC(C)(C)C(=O)Nc1sc2c(c1C#N)CCN(Cc1ccccc1)C2 | – | inconclusive: 0.141 µM [inhibitor, full curve, poor fit] |
| Cc1[nH]nc2c1C(c1cc(Br)cs1)C(C#N)=C(N)O2 (stereo not given) | inactive: -8.53% | – |

(next part)

| SMILES | activity change, negative = inhibition | Potency |
| --- | --- | --- |
| CC1(N2CCOCC2)CC2(O)C(=[N+]1[O-])CCc1c2no[n+]1[O-] (stereo not given) | inactive: -6.31% | – |
| Cc1nc(Nc2cc(F)ccc2C)c2nnn(Cc3ccccc3)c2n1 | – | inconclusive: 5.62 µM [inhibitor, single point] |
| COCCNC(=O)C(c1ccc(Cl)cc1)N(CCOC)C(=O)CCC(=O)Nc1nccs1 (stereo not given) | inactive: -3.25% | – |
| O=C(Cc1ccccc1)N/N=C\c1ccc(Br)o1 | – | inconclusive: 2.51 µM [inhibitor, single point] |
| Cc1ccc(S(=O)(=O)N2[C@@H](c3ccc(C(C)(C)C)cc3)C(C(=O)O)=CC[C@H]2c2ccc(Cl)c(Cl)c2)cc1 | – | inconclusive: 22.4 µM [inhibitor, single point] |
| Cc1ccc(NC(=O)CN(C)C(=O)c2cc(-c3ccco3)nc3ccccc23)cc1 | – | inconclusive: 22.4 µM [inhibitor, partial curve] |
| COc1ccc(CNC(=O)C2CC(c3ccccc3[N+](=O)[O-])=NO2)cc1 (stereo not given) | – | inconclusive: 3.98 µM [inhibitor, single point] |
| CC(NC(=O)Nc1ccccc1Cl)c1ccc2c(c1)OCO2 (stereo not given) | – | inconclusive: 1.12 µM [inhibitor, full curve, poor fit] |
| O=C(c1ccc(N2CCCCC2)c([N+](=O)[O-])c1)N(Cc1ccccc1)c1ccccn1 | – | inconclusive: 39.8 µM [inhibitor, single point] |
| Cc1ccc(NS(=O)(=O)c2cn(C)c(=O)n(C)c2=O)cc1C | – | inconclusive: 31.6 µM [inhibitor, single point] |
| Cc1ccccc1C1CC(=O)Oc2cc(C)c(Br)c(C)c21 (stereo not given) | inactive: 0.341% [at 88.6 µM] | – |
| CCN1CCS/C1=C\C=C\C1=[N+](CC)CCS1 | inactive: -9.64% | – |
| Cc1c(Cl)c([N+](=O)[O-])nn1CC(=O)NC1CCCCC1 | – | inconclusive: 8.91 µM [inhibitor, single point] |
| O=C(CN1CCCc2ccccc21)NC(=O)NCc1ccccc1 | inactive: -8.98% | – |
| O=C(Cn1cncn1)NCc1cccc2ccccc12 | – | active: 3.55 µM |
| CCCCC(=O)Nc1ncc([N+](=O)[O-])s1 | inactive: -8.27% | – |
| Nc1c(C(=O)NC2CC2)sc2nc3c(c(-c4ccco4)c12)CC/C3=C/c1ccco1 | – | inconclusive: 22.4 µM [inhibitor, partial curve] |
| Cc1ccc(CNC(=O)C23CN(Cc4ccccc4)CC2C(c2cccc([N+](=O)[O-])c2)=NO3)cc1 (stereo not given) | – | inconclusive: 10 µM [inhibitor, full curve, poor fit] |
| COc1cccc(CNC(=O)CCc2c(C)c3cc4c(C)c(C)oc4cc3oc2=O)c1 | inactive: -3.02% | – |
| COc1ccccc1CNS(=O)(=O)c1c(C)nc2sccn2c1=O | – | inconclusive: 7.08 µM [inhibitor, single point] |
| NC(=O)N/N=C/c1ccc([N+](=O)[O-])o1 | – | inconclusive: 25.1 µM [inhibitor, single point] |
| CCCCCSc1nnc(C)c(=O)[nH]1 | – | inconclusive: 3.98 µM [inhibitor, partial curve] |
| O=C(Cc1nc(-c2ccc([N+](=O)[O-])cc2)cs1)Nc1ccccc1 | – | inconclusive: 0.794 µM [inhibitor, single point] |
| Cn1sc(NC(=O)c2cccc(Cl)c2)nc1=O | inactive: -4.09% | – |

| SMILES | activity change, negative = inhibition | Potency |
| --- | --- | --- |
| O=C(CCn1cccc1)N1CCc2ccccc21 | – | inconclusive: 25.1 µM [inhibitor, single point] |
| COc1ccccc1-c1oc2ccccc2c1C#CCCO | – | inconclusive: 28.2 µM [inhibitor, single point] |
| c1ccc(-c2nc(-c3nccc4ccccc34)oc2-c2ccccc2)cc1 | – | inconclusive: 39.8 µM [inhibitor, single point] |
| Cc1c(OC(C)C(=O)NCc2ccccn2)ccc2c3c(c(=O)oc12)CCCC3 (stereo not given) | – | inconclusive: 3.98 µM [inhibitor, single point] |
| CCOC(=O)c1cnc(COc2ccccc2Cl)[nH]c1=O | – | inconclusive: 39.8 µM [inhibitor, single point] |
| Cn1c(=O)n(-c2ccc(Cl)cc2)c(=O)c2c3c(sc21)COC(C)(C)C3 | – | inconclusive: 0.794 µM [inhibitor, single point] |
| CC(C)Cc1nnc(NC(=O)CCc2ccccc2)s1 | – | inconclusive: 39.8 µM [inhibitor, single point] |
| CCCNC(=O)C(Cc1ccccc1)NC(=O)c1ccc(C(C)(C)C)cc1 (stereo not given) | – | inconclusive: 35.5 µM [inhibitor, single point] |
| Cc1cc(C)cc(NC(=O)COc2ccc3c(C)c(Cc4ccccc4)c(=O)oc3c2)c1 | – | inconclusive: 25.1 µM [inhibitor, single point] |
| CCCCCCCC(=O)Nc1cc(C(=O)NCCC)ccc1N1CCC2(CC1)CC(c1ccccc1)=NO2 | inactive: -3.66% | – |
| CC1(C)c2ssc(=S)c2-c2ccccc2N1C(=O)CSC1=NCCS1 | – | inconclusive: 0.794 µM [inhibitor, single point] |
| O=C(c1ccc2c(c1)OCO2)C1CCCN(Cc2cccc(C(F)(F)F)c2)C1 (stereo not given) | inactive: -22.3% | – |
| COC(=O)c1c(NC(=O)CCCOc2ccc(C)cc2)sc2c1C(C(=O)OC)CC2 (stereo not given) | – | inconclusive: 31.6 µM [inhibitor, single point] |
| Cc1cc2nc3c(=O)n(CCc4ccccc4)c(=O)[nH]c3nc2cc1N | – | inconclusive: 15.8 µM [inhibitor, partial curve] |
| COc1cccc(C2(O)CC(C(F)(F)F)=NN2C(=O)c2ccccn2)c1 (stereo not given) | – | active: 25.1 µM |
| COc1cccc(C(=O)OCC(=O)NCCCc2ccccc2)c1 | inactive: 2.96% | – |
| O=C(N/N=C/c1ccc(O)cc1)c1cc[n+](Cc2ccccc2)cc1 | inactive: 33.3% | – |
| Cc1ccccc1-c1ccc2ncnc(NCc3cccs3)c2c1 | – | inconclusive: 31.6 µM [inhibitor, single point] |
| CNc1oc(C)nc1S(=O)(=O)c1ccc(C)cc1 | – | inconclusive: 25.1 µM [inhibitor, single point] |
| O=C(Oc1ccccc1)N1CCOCC1 | – | inconclusive: 7.08 µM [inhibitor, single point] |
| Cc1cccc([C@@H]2[C@@H]3C(=O)N(Cc4ccccc4)C(=O)[C@@H]3[C@]3(Cc4ccc(Cl)cc4)C(=O)N(c4cccc(Cl)c4)C(=O)N23)c1 | – | inconclusive: 25.1 µM [inhibitor, partial curve] |
| CCc1ccc(/C=C/C(=O)c2cc(Br)ccc(=O)c2O)cc1 | – | inconclusive: 39.8 µM [inhibitor, single point] |

From PubChem BioAssay AID504327 (National Center for Advancing Translational Sciences (NCATS), 2011)
